PubChem BioAssay AID1347423 (Functional Genomics Laboratory (NCATS/FGL), 2020)
Among all 52,000 sequences or so, about 210 (0.4%) were called active.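 Rule for the calls: active = gene whose silencing raises cell survival under the drug, median off-target-corrected z-score across its silencing RNAs 2 or more; inactive = the rest.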 The list shows a part of the results.

Assay: Resistance to Poly (ADP-Ribose) Polymerase inhibitor: Gene Identification via Genome-wide siRNA Screen
Conditions: mouse BRCA2 R2336H ES cells, olaparib, CellTiter-Glo viability; hits give high values
Method in brief: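 Genome-wide siRNA screen (3 siRNAs/gene, 20 nM) in mouse ES cells carrying hypomorphic BRCA2 R2336H; olaparib 500 nM added 48 h post-transfection, CellTiter-Glo viability 72 h later. Normalized to plate-median negative control; MAD z-scores, gene median, seed-adjusted.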

| Sequence | z-score |
| --- | --- |
| CCAGUGCUAGCUUCUACGATT against Dusp3 | inactive: -0.288 |
| GGGAGUCAACUCUAUUUAUTT against AW549877 | inactive: 0.41 |
| GGGAUUAUACUAAUCCAACTT against Wdrx1 | inactive: 0.255 |
| CCGAGUAAUUAACUAUAAGTT against 4930579C15Rik | inactive: -0.256 |
| CGCAAUAAAGAAUUCUCCCTT against 2810428I15Rik | inactive: -0.93 |
| CCUACGUGAUCAACAAGCATT against Frda | inactive: -0.29 |
| GGACAUUGACACUUCCCUGTT against P2rx5 | inactive: -1.59 |
| CGAAGGACCAGGGAAUCUGTT against Tsg-5 | inactive: -0.711 |
| GGAGAGAAAAACCAACAGCTT against Foxa1 | inactive: 2.88 |
| GGGCUUAAGGGUUUCUGUUTT against Hist1h3g | inactive: -0.444 |
| GGGCUCACCUCUCUCUUUGTT against 1110007H17Rik | inactive: -1.51 |
| CCGAAUGAGCUUUACCUAUTT against Ctsj | inactive: 0.341 |
| CGAGGUCCUUGAUUAUAUCTT against C2ta | inactive: 1.04 |
| GCCUCAAUAAAUUGUCAGCTT against Slc25a17 | inactive: 0.336 |
| GGUUUUAUGCAUUAGCUCCTT against Lipf | inactive: 0.442 |
| CCUUGGUGGAAUCGUUCCUTT against Timd2 | inactive: -1.49 |
| GGAACAGCAGCAGAGACAATT against Ppargc1a | inactive: 0.674 |
| GGAUGUUGGCCUCUUUCUCTT against MOR253-5 | inactive: 1.13 |
| CCAGAAUGUCUGUAAGGCATT against Rassf5 | inactive: -0.345 |
| CGGACAACUUUUGAAGCUGTT against Spata5l1 | inactive: 0.247 |
| GGUUGAUCGCCUUAGAAAUTT against Etnk2 | inactive: -1.35 |
| CGAGCUUUGCUUAAAAUCGTT against Pmp2 | inactive: -0.0483 |
| GCUUCCAUGCCCAUGGAUATT against Crybb2 | inactive: 0.427 |
| GGAAACUGAGCUUAAGAUUTT against Cald1 | inactive: 1.09 |
| GGUGUUUCAUAUGGUUACUTT against Psma3 | inactive: -3.53 |
| CCACGAGAGCCUAAAGCUUTT against Msh5 | inactive: 0.379 |
| GGAACAAAGAGGUGAUGUUTT against Olfr109 | inactive: -1.35 |

| Sequence | z-score |
| --- | --- |
| GGAUUGUUGGUCCUCAAGUTT against Topbp1 | inactive: -2.32 |
| GGCUGAAGAGGAUCGGUACTT against Atpi | inactive: -1.39 |
| GGUGGAGUCUGGAAUUUCATT against Drd3 | inactive: -1.36 |
| GGCGAAAACGGUAAAGCCUTT against Hist1h1e | inactive: -0.576 |
| GGAUUUAUUUAUGUCUUCCTT against Slc17a1 | inactive: -0.427 |
| GGAGCUUUCAGCUAAGACATT against Rassf4 | inactive: -1.5 |
| GGAAGUGGUCAUAUUCACGTT against Jag2 | inactive: 0.104 |
| GGAAAACUCAUGAUCACUUTT against Robo1 | inactive: 1.26 |
| GCCUCUGGACUACUAUAGATT against Gale | inactive: 1.19 |
| GGCAAUGAACUGAGUUGCUTT against Ugt2a2 | inactive: 2.45 |
| GGUGAUCUUAGCAAUGUUUTT against Pdk2 | inactive: 0.103 |
| CCACCUCAAGAUAUGGAUGTT against D19Ertd703e | inactive: -0.916 |
| GGACAUUCGGCCCUAUUGCTT against Got1 | inactive: -1.54 |
| GCCACGAUUUGCCUUAUUUTT against Litaf | inactive: -0.894 |
| GGGCUUACCGUAUAACUUUTT against Sdfr1 | inactive: 0.331 |
| CGAGAACAACACUUGGAAUTT against Ubxd2 | inactive: 0.554 |
| GGAAAAUGUAAGGACUUGATT against Ear5 | inactive: -0.368 |
| GCAAUUCAGCUUAUAAGCATT against 1700007D05Rik | inactive: 0.221 |
| GGUGGGAGUCAUUUUCCGUTT against P2rx1 | inactive: -0.39 |
| GGGAAACUCUCAGAUGAAGTT against 4933412E14Rik | inactive: -1.78 |
| GGAGAAUCAAAGAAGAAGATT against Xpc | inactive: -0.45 |
| GGCAUUUAGUAAAACCCUUTT against Rnf144 | inactive: -1.2 |
| GGAUCUCAUACAGAAUCCGTT against D14Ertd500e | inactive: 1.2 |
| GGAAUAGAGAUAUCAGUAATT against Olfr866 | inactive: -0.578 |
| GCGAUUGACUUUUACCGGATT against Mak3 | inactive: -2.78 |
| GGACAAAUUCUCCUUUGACTT against Fkbp4 | inactive: -0.53 |
| GGUCCUUGAUGAGUGUAAUTT against Erp29 | inactive: -0.25 |

| Sequence | z-score |
| --- | --- |
| CCUUGUAGCUCUGAGGAUATT against 2310042E22Rik | inactive: -0.187 |
| GGACCAGUUAAAGUCACCATT against Atp4b | inactive: -0.369 |
| GGCUAAUACCAAACCUAUATT against Tisp78 | inactive: -0.567 |
| ACCUGUGAUGGUGGAGACUTT against AF067061 | inactive: 2.08 |
| GGGUCAUGGACAAUAGAAATT against Olfr52 | inactive: -0.244 |
| GGACUAUUCACACUAAGUCTT against 1110038F21Rik | inactive: -0.752 |
| UUGUAUUGAGUGGUUAAGCTT against LOC382686 | inactive: -0.473 |
| GGAACAAAAACUGGUGCGCTT against Emilin2 | inactive: 3.22 |
| UUGUUAUAGCACUUCCAAATT against 4921511C04Rik | inactive: -0.397 |
| CGAGCAUAAAAGUUAUGUGTT against Chaf1b | inactive: -1.24 |
| GCUGUAGAGAUCAAUAGAGTT against Abcd2 | inactive: 0.149 |
| GGAGCAAUUGAGAAAGAAGTT against Moap1 | inactive: -0.504 |
| GCAAAACUUCGGAUAGUCATT against Gak | inactive: 2.71 |
| GGACGGUUACAAUGUGUACTT against Fgf21 | inactive: 0.193 |
| CGAGUAGUGAUGCUGUUGATT against Dhx33 | inactive: 0.223 |
| GGAAGAAAAAGCCGGGAAGTT against Fbxo3 | inactive: -0.625 |
| GCAGGUUCACGACACCAACTT against Sv2a | inactive: -1.39 |
| GGAAGACAAGGUUUUAGCUTT against A430108B07Rik | inactive: 0.745 |
| CGGGUCAAUUUGAAUGCAUTT against Polydom | inactive: 0.379 |
| GGAAAUCUACGAUUUCUAATT against D12Ertd553e | inactive: 2.17 |
| CCUUAGCAAUGGGAUUGAUTT against Rasl12 | inactive: 0.164 |
| GGGCUUUGGACAUCUCCUATT against Serpina3c | inactive: -2.57 |
| GGGAAAACCGAAUAAAGAUTT against Ren2 | inactive: 0.786 |
| GGGAGAAUUAAACCUAAAGTT against Hus1 | inactive: -0.269 |
| GGUACCACCAUGCUAUGGUTT against AY026312 | inactive: 1.66 |
| GCUGAAAAUGACCCGGAAGTT against Cftr | inactive: -1.81 |
| GCAGUUAUGCCAGCUAUACTT against Hao3 | inactive: -2.37 |

Reformatted with bars between the fields: part of the list above
Sequence | z-score
CGAGCAUAAAAGUUAUGUGTT against Chaf1b | inactive: -1.24
GCUGUAGAGAUCAAUAGAGTT against Abcd2 | inactive: 0.149
GGAGCAAUUGAGAAAGAAGTT against Moap1 | inactive: -0.504
GCAAAACUUCGGAUAGUCATT against Gak | inactive: 2.71
GGACGGUUACAAUGUGUACTT against Fgf21 | inactive: 0.193

(next part)

| Sequence | z-score |
| --- | --- |
| GGCCCAUGUAACAAAUAGATT against Tm4sf13 | inactive: 0.154 |
| GGAGCAUUCAAAUUACAUCTT against Ccni | inactive: -0.193 |
| GGAGACAGAUCCUCUCAAUTT against Map4k2 | inactive: 1.63 |
| CCGUCUUCGAUGAGGCAAUTT against Rac2 | inactive: -0.0941 |
| GGCAGAAGCCGUUAGAGAUTT against Ddc8 | inactive: 0.534 |
| CCAAGUCCAUAGUUGAACUTT against Bnc1 | inactive: -0.0433 |
| GGAGGAACCUACCUUUGACTT against Tbc1d17 | inactive: 0.509 |
| GCGUAAGGAAGUUCUGUGCTT against Ly96 | inactive: -0.627 |
| GGUGAACAAUAUCUUCAUCTT against Klf5 | inactive: 0.688 |
| CCCAAAUGCGCCAAAAUCATT against Deadc1 | inactive: -0.223 |
| GGUUUUAAAGCAAUGAGCATT against Olfr995 | inactive: 0.778 |
| GCGUAUGGAAUCAUAAGAATT against Smurf2 | inactive: -0.469 |
| GCUACAUCAAGGAAUUACUTT against D7Bwg0611e | inactive: -0.167 |
| CCAGUCACGUUUUAAAAGCTT against 2410075B13Rik | inactive: -0.0647 |
| GAUCUGUUUGAACAGUAUGTT against Clps | inactive: -0.327 |
| GGACAUCAUGAACAAGCAATT against Ghrh | inactive: 1.38 |
| GGAAAAUGUCUGUGAUCAUTT against Tulp3 | inactive: -0.815 |
| GUUAAAGACUAACCUGUUATT against 2310010M20Rik | inactive: -0.402 |
| GGCAAGAUGUAUGAUGCUUTT against Slpi | inactive: -0.637 |
| CGAGCAUGUGUUACAUUAUTT against 2600017J23Rik | inactive: -0.691 |
| GGCUCAUCUAUCAGAUUUUTT against Clic5 | inactive: 2.14 |
| GCUACAAUGUCUUCUGGUCTT against Gcs1 | inactive: 1.17 |
| GGAAAACAAGUGCAGCAUGTT against D230012E17Rik | inactive: 0.418 |
| GCACUAGCUAAUAAUGCAATT against 4933425A18Rik | inactive: 1.68 |

4 records drawn at random from those above:

| Sequence | z-score |
| --- | --- |
| GGACGGUUACAAUGUGUACTT against Fgf21 | inactive: 0.193 |
| CCACCUCAAGAUAUGGAUGTT against D19Ertd703e | inactive: -0.916 |
| GGUGGAGUCUGGAAUUUCATT against Drd3 | inactive: -1.36 |
| GGGAAAACCGAAUAAAGAUTT against Ren2 | inactive: 0.786 |
